Measurements: PMC5834258, “Selective targeting of collagen IV in the cancer cell microenvironment reduces tumor burden” (Oncotarget, 2018)
Positions count from the first letter of the chain named. No constants are given. Whether binding was seen depends on the method and setting. Some results given as binding are weak or reduced against the parent protein; the word gives no strength. Where a sequence is shown, tags or fusion partners need not be part of it.

T1: FLAG-GPBP-2/CERT fused to the binding domain of GAL4 (pGBT9-FLAG-GPBP-2) (UniProt Q9Y5P4)
T1 sequence: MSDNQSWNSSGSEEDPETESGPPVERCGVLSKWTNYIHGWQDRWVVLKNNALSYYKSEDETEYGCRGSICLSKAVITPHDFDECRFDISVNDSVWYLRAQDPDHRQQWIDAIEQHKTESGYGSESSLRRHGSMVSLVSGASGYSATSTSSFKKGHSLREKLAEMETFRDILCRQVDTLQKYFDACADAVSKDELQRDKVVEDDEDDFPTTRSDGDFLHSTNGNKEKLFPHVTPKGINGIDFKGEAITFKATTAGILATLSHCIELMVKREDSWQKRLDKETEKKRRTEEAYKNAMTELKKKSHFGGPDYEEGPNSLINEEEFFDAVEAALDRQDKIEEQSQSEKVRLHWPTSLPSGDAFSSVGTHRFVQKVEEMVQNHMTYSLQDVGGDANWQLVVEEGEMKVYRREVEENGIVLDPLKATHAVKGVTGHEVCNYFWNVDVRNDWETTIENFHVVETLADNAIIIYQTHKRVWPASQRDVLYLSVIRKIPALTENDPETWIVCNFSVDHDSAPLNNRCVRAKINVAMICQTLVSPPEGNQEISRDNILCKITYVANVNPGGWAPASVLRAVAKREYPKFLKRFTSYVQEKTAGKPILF

T2: polypeptide representing GIP130 (GPBP-interacting protein 130-kDa), residues 86-350, GAL4 fusion (UniProt Q4L180)
T2 sequence: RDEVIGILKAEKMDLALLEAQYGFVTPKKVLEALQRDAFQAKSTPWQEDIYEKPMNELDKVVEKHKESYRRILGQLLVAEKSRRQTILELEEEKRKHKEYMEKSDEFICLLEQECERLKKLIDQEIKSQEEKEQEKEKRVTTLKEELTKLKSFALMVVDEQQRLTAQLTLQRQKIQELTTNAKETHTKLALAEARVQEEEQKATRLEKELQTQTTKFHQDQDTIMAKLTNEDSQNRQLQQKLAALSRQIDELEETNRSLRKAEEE

B1: GPBP fused to the activation domain of GAL4 (pGAD424) (protein, UniProt Q9Y5P4 1-624)
chain: MSDNQSWNSSGSEEDPETESGPPVERCGVLSKWTNYIHGWQDRWVVLKNNALSYYKSEDETEYGCRGSICLSKAVITPHDFDECRFDISVNDSVWYLRAQDPDHRQQWIDAIEQHKTESGYGSESSLRRHGSMVSLVSGASGYSATSTSSFKKGHSLREKLAEMETFRDILCRQVDTLQKYFDACADAVSKDELQRDKVVEDDEDDFPTTRSDGDFLHSTNGNKEKLFPHVTPKGINGIDFKGEAITFKATTAGILATLSHCIELMVKREDSWQKRLDKETEKKRRTEEAYKNAMTELKKKSHFGGPDYEEGPNSLINEEEFFDAVEAALDRQDKIEEQSQSEKVRLHWPTSLPSGDAFSSVGTHRFVQKPYSRSSSMSSIDLVSASDDVHRFSSQVEEMVQNHMTYSLQDVGGDANWQLVVEEGEMKVYRREVEENGIVLDPLKATHAVKGVTGHEVCNYFWNVDVRNDWETTIENFHVVETLADNAIIIYQTHKRVWPASQRDVLYLSVIRKIPALTENDPETWIVCNFSVDHDSAPLNNRCVRAKINVAMICQTLVSPPEGNQEISRDNILCKITYVANVNPGGWAPASVLRAVAKREYPKFLKRFTSYVQEKTAGKPILF
B2: yeast recombinant FLAG-tagged GPBP-Ala264 (natural protein, human, UniProt Q9Y5P4 1-624, looked up)
chain: B1 chain with E264A
notes: Mainly trimeric by SEC, with traces of higher and lower MW materials; source: yeast, purified

Legend:
[1] = target: T1, FLAG-GPBP-2/CERT fused to the binding domain of GAL4 (pGBT9-FLAG-GPBP-2); experiment: two-hybrid; yeast two-hybrid, colony-lift filter assays (blue colour = +); GPBP-2/CERT as bait (pGBT9), GPBP and mutants in pGAD424
[2] = target: T2, polypeptide representing GIP130 (GPBP-interacting protein 130-kDa), residues 86-350, GAL4 fusion; experiment: as above

| Binder | binding [1] | binding [2] |
| --- | --- | --- |
| B1 | binds | – |
| B2 | no binding | binds |
